# Key:
# [1] = Analysis of glycan structure by HI-UHPLC of 2-AB labeled N-glycans with exoglycosidase array; conditions: share of glycan peak areas
# [2] = Mannose-6-phosphate monosaccharide quantitation by PAD-HPLC after sGNPT modification
Molecule,relative abundance of bi-antennary glycans (A2) [1] [%],relative abundance of high-mannose glycans (A0) [1] [%],relative abundance of tetra-antennary glycans (A4) [1] [%],"molar ratio pmol M6P/pmol Naglu Kif ([2]; +35 ug GNPT, 50 mM Sodium Acetate pH 6.5, 20 mM MnCl2)","molar ratio pmol M6P/pmol Naglu Kif ([2]; +70 ug GNPT, 50 mM Sodium Acetate pH 6.5, 20 mM MnCl2) [pmol M6P/pmol Naglu Kif]","molar ratio pmol M6P/pmol Naglu Kif ([2]; +70 ug GNPT, 50 mM Tris pH 7.4, 10 mM MnC2, 10 mm MgCl2) [pmol M6P/pmol Naglu Kif]","molar ratio pmol M6P/pmol Naglu Kif ([2]; +140 ug GNPT, 50 mM Sodium Acetate pH 6.5, 20 mM MnCl2) [pmol M6P/pmol Naglu Kif]"
rhNaglu: recombinant human alpha-N-acetyl-glucosaminidase purified from human fibrosarcoma HT1080 cells engineered to over-express it (protein) DEAREAAAVRALVARLLGPGPAADFSVSVERALAAKPGLDTYSLGGGGAARVRVRGSTGVAAAAGLHRYLRDFCGCHVAWSGSQLRLPRPLPAVPGELTEATPNRYRYYQNVCTQSYSFVWWDWARWEREIDWMALNGINLALAWSGQEAIWQRVYLALGLTQAEINEFFTGPAFLAWGRMGNLHTWDGPLPPSWHIKQLYLQHRVLDQMRSFGMTPVLPAFAGHVPEAVTRVFPQVNVTKMGSWGHFNCSYSCSFLLAPEDPIFPIIGSLFLRELIKEFGTDHIYGADTFNEMQPPSSEPSYLAAATTAVYEAMTAVDTEAVWLLQGWLFQHQPQFWGPAQIRAVLGAVPRGRLLVLDLFAESQPVYTRTASFQGQPFIWCMLHNFGGNHGLFGALEAVNGGPEAARLFPNSTMVGTGMAPEGISQNEVVYSLMAELGWRKDPVPDLAAWVTSFAARRYGVSHPDAGAAWRLLLRSVYNCSGEACRGHNRSPLVRRPSLQMNTSIWYNRSDVFEAWRLLLTSAPSLATSPAFRYDLLDLTRQAVQELVSLYYEEARSAYLSKELASLLRAGGVLAYELLPALDEVLASDSRFLLGSWLEQARAAAVSEAEADFYEQNSRYQLTLWGPEGNILDYANKQLAGLVANYYTPRWRLFLEALVDSVAQGIPFQQHQFDKNVFQLEQAFVLSKQRYPSQPRGDTVDLAKKIFLKYYPRWVAGSW,33,0,45,–,–,–,–
Naglu-Kif: high-mannose-containing recombinant human Naglu purified from HT1080 cells grown with 2 mg/l Kifunensine; tested after sGNPT modification (protein) DEAREAAAVRALVARLLGPGPAADFSVSVERALAAKPGLDTYSLGGGGAARVRVRGSTGVAAAAGLHRYLRDFCGCHVAWSGSQLRLPRPLPAVPGELTEATPNRYRYYQNVCTQSYSFVWWDWARWEREIDWMALNGINLALAWSGQEAIWQRVYLALGLTQAEINEFFTGPAFLAWGRMGNLHTWDGPLPPSWHIKQLYLQHRVLDQMRSFGMTPVLPAFAGHVPEAVTRVFPQVNVTKMGSWGHFNCSYSCSFLLAPEDPIFPIIGSLFLRELIKEFGTDHIYGADTFNEMQPPSSEPSYLAAATTAVYEAMTAVDTEAVWLLQGWLFQHQPQFWGPAQIRAVLGAVPRGRLLVLDLFAESQPVYTRTASFQGQPFIWCMLHNFGGNHGLFGALEAVNGGPEAARLFPNSTMVGTGMAPEGISQNEVVYSLMAELGWRKDPVPDLAAWVTSFAARRYGVSHPDAGAAWRLLLRSVYNCSGEACRGHNRSPLVRRPSLQMNTSIWYNRSDVFEAWRLLLTSAPSLATSPAFRYDLLDLTRQAVQELVSLYYEEARSAYLSKELASLLRAGGVLAYELLPALDEVLASDSRFLLGSWLEQARAAAVSEAEADFYEQNSRYQLTLWGPEGNILDYANKQLAGLVANYYTPRWRLFLEALVDSVAQGIPFQQHQFDKNVFQLEQAFVLSKQRYPSQPRGDTVDLAKKIFLKYYPRWVAGSW,–,–,–,below the detection threshold,0.12,1.45,0.64
"rhArylsulfatase A: another recombinant lysosomal enzyme produced in the same cell type as rhNaglu (protein, UniProt P15289 19-507, looked up) Arylsulfatase A: RPPNIVLIFADDLGYGDLGCYGHPSSTTPNLDQLAAGGLRFTDFYVPVSLCTPSRAALLTGRLPVRMGMYPGVLVPSSRGGLPLEEVTVAEVLAARGYLTGMAGKWHLGVGPEGAFLPPHQGFHRFLGIPYSHDQGPCQNLTCFPPATPCDGGCDQGLVPIPLLANLSVEAQPPWLPGLEARYMAFAHDLMADAQRQDRPFFLYYASHHTHYPQFSGQSFAERSGRGPFGDSLMELDAAVGTLMTAIGDLGLLEETLVIFTADNGPETMRMSRGGCSGLLRCGKGTTYEGGVREPALAFWPGHIAPGVTHELASSLDLLPTLAALAGAPLPNVTLDGFDLSPLLLGTGKSPRQSLFFYPSYPDEVRGVFAVRTGKYKAHFFTQGSAHSDTTADPACHASSSLTAHEPPLLYDLSKDPGENYNLLGGVAGATPEVLQALKQLQLLKAQLDAAVTFGPSQVARGEDPALQICCHPGCTPRPACCHCPDPHA",–,40,–,–,–,–,–
